PMC6685929

Protein sequences, listed by entry. Tags and fused reporters are not part of them. Lines headed by an entry give the natural chain unless they say otherwise; changes in a name come on top. Residues count along the entry.
UniProt O70423: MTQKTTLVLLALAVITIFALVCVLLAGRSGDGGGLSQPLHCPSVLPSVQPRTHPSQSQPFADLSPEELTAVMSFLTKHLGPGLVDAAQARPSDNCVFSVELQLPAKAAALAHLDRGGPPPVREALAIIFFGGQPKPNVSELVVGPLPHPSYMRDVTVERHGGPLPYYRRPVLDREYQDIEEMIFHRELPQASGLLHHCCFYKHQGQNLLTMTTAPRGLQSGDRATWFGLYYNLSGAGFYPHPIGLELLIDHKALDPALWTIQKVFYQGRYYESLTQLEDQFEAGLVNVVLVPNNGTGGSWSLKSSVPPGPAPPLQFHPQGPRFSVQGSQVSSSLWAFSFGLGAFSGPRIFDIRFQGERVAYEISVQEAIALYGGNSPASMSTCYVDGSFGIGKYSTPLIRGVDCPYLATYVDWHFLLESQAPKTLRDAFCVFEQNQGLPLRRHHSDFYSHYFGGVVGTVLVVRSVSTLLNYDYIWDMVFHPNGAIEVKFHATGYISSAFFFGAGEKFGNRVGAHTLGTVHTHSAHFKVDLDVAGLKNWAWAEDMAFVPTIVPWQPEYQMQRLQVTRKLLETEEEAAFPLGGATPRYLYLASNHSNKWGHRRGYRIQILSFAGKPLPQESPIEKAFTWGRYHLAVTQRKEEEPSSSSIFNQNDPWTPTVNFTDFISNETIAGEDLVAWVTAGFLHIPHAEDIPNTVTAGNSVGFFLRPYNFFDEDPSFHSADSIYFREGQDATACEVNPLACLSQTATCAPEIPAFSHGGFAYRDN
UniProt Q64726, residues 18-307: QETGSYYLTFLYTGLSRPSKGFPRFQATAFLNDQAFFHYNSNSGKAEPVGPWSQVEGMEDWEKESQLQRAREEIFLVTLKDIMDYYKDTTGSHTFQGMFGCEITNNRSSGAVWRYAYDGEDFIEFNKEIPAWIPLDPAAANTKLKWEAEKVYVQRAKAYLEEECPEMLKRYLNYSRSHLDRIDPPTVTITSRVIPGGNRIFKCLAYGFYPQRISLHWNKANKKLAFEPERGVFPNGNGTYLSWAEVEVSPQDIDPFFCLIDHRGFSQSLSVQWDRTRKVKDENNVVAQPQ

Target: GST-tagged murine AOC3, secretable form (GST-AOC3) (mouse) (UniProt O70423)
Assay: pull-down; GST-AOC3 (200 µl of 50 µg/ml) or GST on GSH-sepharose with 100 µl of 1:10 diluted murine plasma in 1 x PBS; five washes; blot with α-GST and α-ZAG; only the target purified

binding: binds
Substance: murine plasma zinc-α2-glycoprotein (ZAG) (from UniProt Q64726 18-307)

No constants are given. Whether binding was seen depends on the method and setting. Binding seen in cells or lysates may run through a third protein. A result given as binding can be weak or reduced; the word gives no strength.
